Measured values as given in PMC4406748.

By UniProt entry, the sequences of proteins in these tests, tags left out. Where a name states a change or a piece, a line headed by the entry shows the natural chain unless it says otherwise.
UniProt O43707: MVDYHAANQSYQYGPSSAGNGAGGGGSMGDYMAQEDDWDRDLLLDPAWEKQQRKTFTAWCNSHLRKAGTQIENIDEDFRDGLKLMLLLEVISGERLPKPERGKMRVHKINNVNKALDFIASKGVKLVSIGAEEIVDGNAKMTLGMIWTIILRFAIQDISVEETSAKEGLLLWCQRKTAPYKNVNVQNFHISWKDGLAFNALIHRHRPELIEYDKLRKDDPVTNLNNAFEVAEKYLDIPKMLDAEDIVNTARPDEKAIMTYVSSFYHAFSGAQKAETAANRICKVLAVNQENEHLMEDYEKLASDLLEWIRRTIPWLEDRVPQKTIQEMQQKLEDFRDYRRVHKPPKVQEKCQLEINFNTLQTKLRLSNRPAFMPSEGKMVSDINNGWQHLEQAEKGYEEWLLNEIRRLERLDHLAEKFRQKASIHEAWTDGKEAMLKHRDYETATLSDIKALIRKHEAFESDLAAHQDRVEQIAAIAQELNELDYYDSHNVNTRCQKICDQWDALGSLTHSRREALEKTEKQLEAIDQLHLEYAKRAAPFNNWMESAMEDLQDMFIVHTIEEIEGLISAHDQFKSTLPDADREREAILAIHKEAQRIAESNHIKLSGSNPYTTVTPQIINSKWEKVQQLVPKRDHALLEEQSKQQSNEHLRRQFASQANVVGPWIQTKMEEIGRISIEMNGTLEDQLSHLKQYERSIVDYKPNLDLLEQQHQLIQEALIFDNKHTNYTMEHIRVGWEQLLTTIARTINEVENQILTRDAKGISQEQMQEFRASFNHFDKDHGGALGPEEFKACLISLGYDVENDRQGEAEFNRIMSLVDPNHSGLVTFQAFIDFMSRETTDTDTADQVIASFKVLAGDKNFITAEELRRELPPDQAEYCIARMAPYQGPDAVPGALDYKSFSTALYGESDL

What was measured:
Assay in all cases: pull-down; 3 μg purified GST fusion protein on glutathione beads, incubated with 1~2 mg lysate of transfected Ros 17/2.8 cells for 2 h at 4°C; lysis buffer 1% NP40, 0.5% sodium deoxycholate, 0.1% SDS in PBS; western blot; cells untreated or treated with 20 μM forskolin for 24 h (also with 5 μM H89), or lysates treated with forskolin in vitro; only the target purified
[1] = biological target: GST-actinin 4 EF (EF-hand domains, aa 742-811) (UniProt O43707)
[2] = biological target: GST-actinin 4 ABD (actin-binding domain, amino acids 1-237) (UniProt O43707)
[3] = biological target: GST-actinin 4 R14 (spectrin-repeat domains 1-4, aa 269-724) (UniProt O43707)

Substance: L-type calcium channel β3 subunit (from UniProt P54287 1-484)
- binding [1]: binds
- binding [2]: binds
- binding [3]: no binding

These are yes or no findings as the source states them, for the method shown. In cells and extracts the contact can be indirect. For part of these data: Binding calls can cover weak binding; strength is not graded here.
